Laboratory results reported in PMC3875526.
Construct, isoform or probe ends are uncertain for at least one entry. Results from cells or extracts need not show a direct contact. For part of these data: At least one verdict was read from the data and is not stated in words by the source.

By UniProt entry, the sequences of proteins in these tests, tags left out.
UniProt Q04207, whole entry: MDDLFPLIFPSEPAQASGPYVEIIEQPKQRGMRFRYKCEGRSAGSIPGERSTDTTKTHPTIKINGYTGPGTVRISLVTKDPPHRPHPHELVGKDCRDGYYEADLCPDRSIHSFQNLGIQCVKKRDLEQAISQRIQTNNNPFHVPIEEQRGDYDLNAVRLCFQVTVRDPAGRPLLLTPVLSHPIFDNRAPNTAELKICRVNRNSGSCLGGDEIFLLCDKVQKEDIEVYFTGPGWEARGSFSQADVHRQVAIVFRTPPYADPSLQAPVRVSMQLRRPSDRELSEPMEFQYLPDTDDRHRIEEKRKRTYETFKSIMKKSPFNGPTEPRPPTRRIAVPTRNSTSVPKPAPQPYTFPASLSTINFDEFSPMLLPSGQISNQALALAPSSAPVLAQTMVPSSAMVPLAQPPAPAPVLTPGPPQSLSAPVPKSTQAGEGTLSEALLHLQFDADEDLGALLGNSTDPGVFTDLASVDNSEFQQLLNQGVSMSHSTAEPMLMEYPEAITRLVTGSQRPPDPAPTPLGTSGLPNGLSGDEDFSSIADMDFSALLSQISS

Key:
[1] = molecular target: p65 (RelA) homodimer (mouse (MEF, WT)) (UniProt Q04207); assay: competition with a labelled probe; settings: 1 pmol cold competitor vs 0.025 pmol N1 probe, Complex 1 stated specific to NF-kB; 50 mM NaCl, 30 mM KCl, 10 mM Tris-HCl pH 7.5, 1 mM EDTA, 1 mM DTT, 10% glycerol, 1 ug poly(dI-dC), 5 ug nuclear protein, 0.025 pmol probe; protein in an extract; label: none (cold competitor)
[2] = molecular target: p65 (RelA) homodimer (mouse (MEF, WT)) (UniProt Q04207); assay: EMSA; settings: PMA plus U0126 (3 uM) pretreatment of cells, binding not affected; 50 mM NaCl, 30 mM KCl, 10 mM Tris-HCl pH 7.5, 1 mM EDTA, 1 mM DTT, 10% glycerol, 1 ug poly(dI-dC), 5 ug nuclear protein, 0.025 pmol probe; protein in an extract; label: 32P (radiolabeled)
[3] = molecular target: p65 (RelA) homodimer (mouse (MEF, WT)) (UniProt Q04207); assay: EMSA supershift; settings: PMA-treated WT MEF nuclear extract, Complex 1; 50 mM NaCl, 30 mM KCl, 10 mM Tris-HCl pH 7.5, 1 mM EDTA, 1 mM DTT, 10% glycerol, 1 ug poly(dI-dC), 5 ug nuclear protein, 0.025 pmol probe; protein in an extract; label: 32P (radiolabeled)

Sequence	binding result [1]	binding result [2]	binding result [3]
AGTTGAGGGGACTTTCCCAGGC (double strand) [NF-kB consensus oligonucleotide]	binds	–	–
GGAAGGTCTAGGAGACCCCCTAAGATCCCA (double strand) [mouse c-fos promoter kB probe (-226 to -196)]	–	binds	binds
